# According to patent publication US20210123036A1:
# Protein sequences, listed by entry. Tags and fused reporters are not part of them. Lines headed by an entry give the natural chain unless they say otherwise; changes in a name come on top.
# UniProt P02453: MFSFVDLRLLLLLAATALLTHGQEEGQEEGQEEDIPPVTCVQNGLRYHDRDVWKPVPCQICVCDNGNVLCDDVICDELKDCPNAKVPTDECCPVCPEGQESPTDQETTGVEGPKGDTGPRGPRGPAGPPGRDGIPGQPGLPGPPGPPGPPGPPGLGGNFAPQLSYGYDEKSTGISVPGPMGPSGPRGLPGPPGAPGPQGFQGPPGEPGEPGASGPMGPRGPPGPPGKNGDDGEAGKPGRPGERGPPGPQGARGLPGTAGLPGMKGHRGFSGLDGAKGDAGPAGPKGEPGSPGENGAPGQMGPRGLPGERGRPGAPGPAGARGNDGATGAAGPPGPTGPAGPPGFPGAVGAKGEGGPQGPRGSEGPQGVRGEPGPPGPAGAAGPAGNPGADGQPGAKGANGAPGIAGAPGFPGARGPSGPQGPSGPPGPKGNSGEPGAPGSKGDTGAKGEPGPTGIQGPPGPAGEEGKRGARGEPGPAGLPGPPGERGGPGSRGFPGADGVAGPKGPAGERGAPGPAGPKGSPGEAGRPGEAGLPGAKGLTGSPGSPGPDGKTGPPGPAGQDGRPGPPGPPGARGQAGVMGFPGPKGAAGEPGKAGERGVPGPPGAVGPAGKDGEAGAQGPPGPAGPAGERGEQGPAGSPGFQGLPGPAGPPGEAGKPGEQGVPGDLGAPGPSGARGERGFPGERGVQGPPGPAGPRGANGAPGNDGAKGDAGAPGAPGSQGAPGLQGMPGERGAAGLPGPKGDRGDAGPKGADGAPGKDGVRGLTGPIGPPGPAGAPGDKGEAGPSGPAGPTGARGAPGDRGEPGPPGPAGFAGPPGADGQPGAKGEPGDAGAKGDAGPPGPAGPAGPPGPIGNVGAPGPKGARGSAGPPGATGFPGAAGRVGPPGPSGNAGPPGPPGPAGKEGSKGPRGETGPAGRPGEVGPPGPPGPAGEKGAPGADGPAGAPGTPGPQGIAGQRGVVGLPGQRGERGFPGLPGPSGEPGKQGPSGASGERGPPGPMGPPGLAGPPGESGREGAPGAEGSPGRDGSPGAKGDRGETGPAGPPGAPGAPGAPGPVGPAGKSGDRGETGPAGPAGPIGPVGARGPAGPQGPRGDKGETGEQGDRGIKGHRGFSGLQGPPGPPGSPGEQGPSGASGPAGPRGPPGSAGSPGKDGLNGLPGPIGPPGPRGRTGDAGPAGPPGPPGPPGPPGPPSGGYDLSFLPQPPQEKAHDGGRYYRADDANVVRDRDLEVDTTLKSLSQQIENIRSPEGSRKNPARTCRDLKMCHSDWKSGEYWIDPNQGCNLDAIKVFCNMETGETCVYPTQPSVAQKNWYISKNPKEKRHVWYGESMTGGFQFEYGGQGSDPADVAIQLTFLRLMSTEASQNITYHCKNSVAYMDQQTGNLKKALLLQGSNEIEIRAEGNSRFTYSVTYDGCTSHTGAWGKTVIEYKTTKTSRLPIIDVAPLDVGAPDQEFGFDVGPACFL
# UniProt P02465: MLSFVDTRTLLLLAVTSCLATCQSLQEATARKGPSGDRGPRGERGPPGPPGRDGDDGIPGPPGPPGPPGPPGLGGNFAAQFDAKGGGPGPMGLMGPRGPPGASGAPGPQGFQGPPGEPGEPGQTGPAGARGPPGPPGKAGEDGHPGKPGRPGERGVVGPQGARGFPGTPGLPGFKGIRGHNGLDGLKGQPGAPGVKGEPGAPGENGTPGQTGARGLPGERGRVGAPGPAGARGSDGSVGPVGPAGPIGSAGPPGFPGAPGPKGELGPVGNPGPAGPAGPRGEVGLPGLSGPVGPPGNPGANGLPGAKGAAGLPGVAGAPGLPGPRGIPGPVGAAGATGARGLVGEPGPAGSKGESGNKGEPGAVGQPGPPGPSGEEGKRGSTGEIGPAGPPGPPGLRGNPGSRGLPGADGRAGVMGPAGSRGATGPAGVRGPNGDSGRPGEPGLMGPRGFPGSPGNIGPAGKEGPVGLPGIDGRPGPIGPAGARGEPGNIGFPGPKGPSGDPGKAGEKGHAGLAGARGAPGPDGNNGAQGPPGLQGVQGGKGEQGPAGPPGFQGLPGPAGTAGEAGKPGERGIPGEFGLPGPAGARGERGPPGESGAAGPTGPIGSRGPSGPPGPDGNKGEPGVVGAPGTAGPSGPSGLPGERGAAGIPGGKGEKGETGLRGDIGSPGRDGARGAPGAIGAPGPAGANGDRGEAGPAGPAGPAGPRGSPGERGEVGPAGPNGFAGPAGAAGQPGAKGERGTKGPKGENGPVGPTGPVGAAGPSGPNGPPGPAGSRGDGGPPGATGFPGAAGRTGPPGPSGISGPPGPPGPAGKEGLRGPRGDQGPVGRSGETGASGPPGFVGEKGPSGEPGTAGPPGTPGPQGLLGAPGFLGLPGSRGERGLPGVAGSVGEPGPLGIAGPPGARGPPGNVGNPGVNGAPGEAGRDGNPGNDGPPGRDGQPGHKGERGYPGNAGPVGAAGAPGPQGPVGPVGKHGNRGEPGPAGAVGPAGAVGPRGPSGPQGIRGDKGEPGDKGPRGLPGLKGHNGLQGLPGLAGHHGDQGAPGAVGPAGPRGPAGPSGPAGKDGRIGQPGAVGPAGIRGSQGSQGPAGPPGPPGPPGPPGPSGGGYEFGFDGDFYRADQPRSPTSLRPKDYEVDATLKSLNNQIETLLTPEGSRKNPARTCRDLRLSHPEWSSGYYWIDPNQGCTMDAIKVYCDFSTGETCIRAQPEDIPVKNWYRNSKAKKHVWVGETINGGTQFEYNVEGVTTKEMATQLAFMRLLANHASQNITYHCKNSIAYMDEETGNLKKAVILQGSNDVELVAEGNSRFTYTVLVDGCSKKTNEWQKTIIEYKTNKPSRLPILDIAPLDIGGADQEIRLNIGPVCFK
# UniProt P08253: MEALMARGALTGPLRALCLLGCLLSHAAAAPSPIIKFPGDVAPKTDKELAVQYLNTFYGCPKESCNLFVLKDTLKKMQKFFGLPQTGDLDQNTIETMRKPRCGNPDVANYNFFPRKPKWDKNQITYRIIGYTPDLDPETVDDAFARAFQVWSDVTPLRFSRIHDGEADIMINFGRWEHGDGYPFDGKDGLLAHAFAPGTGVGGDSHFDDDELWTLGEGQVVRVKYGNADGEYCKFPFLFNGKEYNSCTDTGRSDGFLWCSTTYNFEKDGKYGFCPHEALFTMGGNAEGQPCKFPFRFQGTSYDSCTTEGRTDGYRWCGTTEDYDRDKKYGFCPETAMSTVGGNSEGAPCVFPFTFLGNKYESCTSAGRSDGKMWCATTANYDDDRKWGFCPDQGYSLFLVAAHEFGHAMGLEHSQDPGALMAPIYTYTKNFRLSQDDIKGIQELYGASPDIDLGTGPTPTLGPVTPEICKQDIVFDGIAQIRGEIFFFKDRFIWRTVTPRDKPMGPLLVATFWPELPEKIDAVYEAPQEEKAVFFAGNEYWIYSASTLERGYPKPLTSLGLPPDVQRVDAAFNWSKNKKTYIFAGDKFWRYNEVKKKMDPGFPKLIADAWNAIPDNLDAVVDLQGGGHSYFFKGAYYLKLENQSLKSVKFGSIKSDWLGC
# These are yes or no findings as the source states them, for the method shown. Binding seen in cells or lysates may run through a third protein. Some results given as binding are weak or reduced against the parent protein; the word gives no strength.
# Target: Gelatin sepharose (bovine skin Type I collagen gelatin) (bovine) (UniProt P02453+P02465)
# Experiment: gelatin sepharose pull-down, SDS-PAGE
row,binding,Substance
1,binds,module 3 of the CBD of MMP-2 (from UniProt P08253 344-392)
2,binds,module 2 of the CBD of MMP-2 (from UniProt P08253 286-334)
3,binds,collagen binding domain (CBD) of gelatinase A (MMP-2) (from UniProt P08253 228-392)
